Results on one molecule are retold here after article doi:10.1101/535831.

The chains behind the UniProt entries cited, without tags or fusion partners.
UniProt Q9H1D9: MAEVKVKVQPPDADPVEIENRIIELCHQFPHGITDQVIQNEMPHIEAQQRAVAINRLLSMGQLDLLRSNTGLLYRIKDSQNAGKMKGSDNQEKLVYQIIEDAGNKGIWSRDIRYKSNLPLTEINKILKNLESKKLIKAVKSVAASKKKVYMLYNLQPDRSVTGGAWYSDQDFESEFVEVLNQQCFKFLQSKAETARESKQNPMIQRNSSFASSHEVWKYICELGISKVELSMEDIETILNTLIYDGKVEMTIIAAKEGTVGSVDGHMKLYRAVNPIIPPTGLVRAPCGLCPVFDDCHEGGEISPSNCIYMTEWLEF

These are yes or no findings as the source states them, for the method shown. In cells and extracts the contact can be indirect. Some binding calls cover weakened binding; strength is not graded here.

The experiment deals with HaloTag-POLR3F (human) (UniProt Q9H1D9). Put plainly: pull-down.

B1: RNA polymerase III catalytic subunit (POLR3A) (protein, UniProt O14802 1-1390)
chain: MVKEQFRETDVAKKISHICFGMKSPEEMRQQAHIQVVSKNLYSQDNQHAPLLYGVLDHRMGTSEKDRPCETCGKNLADCLGHYGYIDLELPCFHVGYFRAVIGILQMICKTCCHIMLSQEEKKQFLDYLKRPGLTYLQKRGLKKKISDKCRKKNICHHCGAFNGTVKKCGLLKIIHEKYKTNKKVVDPIVSNFLQSFETAIEHNKEVEPLLGRAQENLNPLVVLNLFKRIPAEDVPLLLMNPEAGKPSDLILTRLLVPPLCIRPSVVSDLKSGTNEDDLTMKLTEIIFLNDVIKKHRISGAKTQMIMEDWDFLQLQCALYINSELSGIPLNMAPKKWTRGFVQRLKGKQGRFRGNLSGKRVDFSGRTVISPDPNLRIDEVAVPVHVAKILTFPEKVNKANINFLRKLVQNGPEVHPGANFIQQRHTQMKRFLKYGNREKMAQELKYGDIVERHLIDGDVVLFNRQPSLHKLSIMAHLARVKPHRTFRFNECVCTPYNADFDGDEMNLHLPQTEEAKAEALVLMGTKANLVTPRNGEPLIAAIQDFLTGAYLLTLKDTFFDRAKACQIIASILVGKDEKIKVRLPPPTILKPVTLWTGKQIFSVILRPSDDNPVRANLRTKGKQYCGKGEDLCANDSYVTIQNSELMSGSMDKGTLGSGSKNNIFYILLRDWGQNEAADAMSRLARLAPVYLSNRGFSIGIGDVTPGQGLLKAKYELLNAGYKKCDEYIEALNTGKLQQQPGCTAEETLEALILKELSVIRDHAGSACLRELDKSNSPLTMALCGSKGSFINISQMIACVGQQAISGSRVPDGFENRSLPHFEKHSKLPAAKGFVANSFYSGLTPTEFFFHTMAGREGLVDTAVKTAETGYMQRRLVKSLEDLCSQYDLTVRSSTGDIIQFIYGGDGLDPAAMEGKDEPLEFKRVLDNIKAVFPCPSEPALSKNELILTTESIMKKSEFLCCQDSFLQEIKKFIKGVSEKIKKTRDKYGINDNGTTEPRVLYQLDRITPTQVEKFLETCRDKYMRAQMEPGSAVGALCAQSIGEPGTQMTLKTFHFAGVASMNITLGVPRIKEIINASKAISTPIITAQLDKDDDADYARLVKGRIEKTLLGEISEYIEEVFLPDDCFILVKLSLERIRLLRLEVNAETVRYSICTSKLRVKPGDVAVHGEAVVCVTPRENSKSSMYYVLQFLKEDLPKVVVQGIPEVSRAVIHIDEQSGKEKYKLLVEGDNLRAVMATHGVKGTRTTSNNTYEVEKTLGIEAARTTIINEIQYTMVNHGMSIDRRHVMLLSDLMTYKGEVLGITRFGLAKMKESVLMLASFEKTADHLFDAAYFGQKDSVCGVSECIIMGIPMNIGTGLFKLLHKADRDPNPPKRPLIFDTNEFHIPLVT
Turning to B1, the binding result was “binds”.
